Among the data in PMC8545693 are binding values, retold here.

By UniProt entry, the sequences of proteins in these tests, tags left out.
UniProt P25490: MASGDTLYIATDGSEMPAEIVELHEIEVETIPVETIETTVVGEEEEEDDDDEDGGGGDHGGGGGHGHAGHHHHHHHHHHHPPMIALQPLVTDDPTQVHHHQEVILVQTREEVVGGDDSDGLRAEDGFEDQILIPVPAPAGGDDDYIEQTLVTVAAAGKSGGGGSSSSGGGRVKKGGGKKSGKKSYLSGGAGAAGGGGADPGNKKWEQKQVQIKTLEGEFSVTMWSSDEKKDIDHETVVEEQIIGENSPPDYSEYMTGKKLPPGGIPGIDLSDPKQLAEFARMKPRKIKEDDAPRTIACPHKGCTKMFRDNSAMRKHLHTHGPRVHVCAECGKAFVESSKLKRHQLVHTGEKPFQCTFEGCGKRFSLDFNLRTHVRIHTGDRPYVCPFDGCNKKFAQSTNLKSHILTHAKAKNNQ
UniProt Q92560: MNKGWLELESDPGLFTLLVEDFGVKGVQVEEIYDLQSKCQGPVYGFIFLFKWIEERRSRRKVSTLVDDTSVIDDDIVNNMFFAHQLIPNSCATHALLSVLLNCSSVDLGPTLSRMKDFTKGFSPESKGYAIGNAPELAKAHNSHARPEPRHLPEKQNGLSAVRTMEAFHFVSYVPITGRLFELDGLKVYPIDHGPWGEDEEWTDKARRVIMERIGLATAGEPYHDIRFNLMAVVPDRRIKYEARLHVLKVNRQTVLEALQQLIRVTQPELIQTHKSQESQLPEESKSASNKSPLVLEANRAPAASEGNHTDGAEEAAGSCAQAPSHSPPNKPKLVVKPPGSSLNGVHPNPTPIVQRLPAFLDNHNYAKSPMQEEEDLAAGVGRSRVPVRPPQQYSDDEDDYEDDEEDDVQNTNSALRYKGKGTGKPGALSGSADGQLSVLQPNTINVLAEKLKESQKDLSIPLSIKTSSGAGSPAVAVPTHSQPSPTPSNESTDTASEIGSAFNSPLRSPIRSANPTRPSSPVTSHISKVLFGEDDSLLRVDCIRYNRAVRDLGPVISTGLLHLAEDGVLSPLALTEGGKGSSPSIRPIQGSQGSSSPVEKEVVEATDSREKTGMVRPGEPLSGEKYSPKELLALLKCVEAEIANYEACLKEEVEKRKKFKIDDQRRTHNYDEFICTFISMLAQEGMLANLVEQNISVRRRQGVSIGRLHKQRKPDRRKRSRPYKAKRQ

This assay deals with Ying Yang 1 (YY1) (human (endogenous in H2818, MPP89, Caki-1, Meso-8T)) (UniProt P25490). As to the kind of experiment: co-IP; lysates in IP buffer (0.2% NP-40, 20 mM Tris-HCl pH 7.4, 150 mM NaCl, 10% glycerol) incubated overnight with anti-YY1 antibody or IgG, protein-A magnetic beads, immunoblot with anti-BAP1. On the technique in general: A western blot detects proteins with antibodies after separation by electrophoresis.

These are yes or no findings as the source states them, for the method shown. In cells and extracts the contact can be indirect. Some results given as binding are weak or reduced against the parent protein; the word gives no strength.

As to “BRCA1-associated protein 1 (BAP1), endogenous (from UniProt Q92560 1-729)”, the binding entry is “binds”.
The value for “wt-BAP1 (lentivirally transduced full-length BAP1) (from UniProt Q92560 1-729)” was “binds”.
